The results in this text go back to PMC11423568.

Sequences of proteins named here, by UniProt entry; tags and fusion partners are left off.
UniProt O30612: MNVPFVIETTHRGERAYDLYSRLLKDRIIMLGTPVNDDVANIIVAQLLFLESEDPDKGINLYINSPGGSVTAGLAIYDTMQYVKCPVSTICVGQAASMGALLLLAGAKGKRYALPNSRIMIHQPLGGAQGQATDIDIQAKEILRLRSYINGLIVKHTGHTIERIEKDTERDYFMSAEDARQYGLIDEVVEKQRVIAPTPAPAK

Results are given in words; binding and its absence hold for the method and conditions named. Some entries that bind do so weakly or less than the wild type.

For this test, the target named is Myxococcus xanthus DK1622 ClpP2 (MXAN_6438), no tag (Myxococcus xanthus DK1622) (UniProt O30612). Kind of test: cross-linking; 20 µM ClpP1 or ClpP2 in 20 mM HEPES, 100 mM NaCl, 1 mM EDTA, pH 7.5, 25°C; glutaraldehyde (0.1% in methods, 1% in legend) 10 min, quenched with 200 mM Tris-HCl pH 7.5; SDS-PAGE; both purified.

As for “Myxococcus xanthus DK1622 ClpP2 (MXAN_6438), no tag (from UniProt O30612 1-203) (enzyme)”, the binding entry was “binds weakly”.
